{"source": "patent US11850279B2", "about": "“Platforms and methods for optimizing host antigen presentation and host antitumor and antipathogen immunity” (OHIO STATE INNOVATION FOUNDATION, priority 2016, dated 2023)", "key": {"[1]": {"tested_on": "antigen-specific CD8^+ T cells", "assay": "In vivo priming of ovalbumin-specific TCR-transgenic CD8+ T cells by CABs loaded with ovalbumin and α-GC, with FTY720 or vehicle", "parameters": "species or system C57BL/6 mice", "settings": "FTY720 vs vehicle"}, "TC-1 cells (HPV18 E6/E7)": {"tested_on": "TC-1 cells (HPV18 E6/E7)", "assay": "Murine model of HPV-associated tumor (TC-1), CAB therapy with FTY720", "assay_type": "in vivo", "settings": "FTY720 added to single dose CAB therapy; 2×10^5 tumor cells"}, "CABs": {"tested_on": "CABs", "assay": "Effect of FTY720 on CAB frequency in a host's spleen (CellTrace Violet labeled CABs)", "assay_type": "in vivo", "settings": "FTY720 at 1.25 mg/kg"}}, "note": "For at least one compound, name, drawing or mass did not settle the structure.", "data": [{"smiles": "CCCCCCCCc1ccc(CCC(N)(CO)CO)cc1", "note": "[FTY720, fingolimod]", "values": [{"measurement": "ability of CAB therapy to activate and induce proliferation of antigen-specific CD8^+ T cells in vivo", "setting": "[1]", "value": "significantly increases"}, {"measurement": "tumor rejection", "setting": "TC-1 cells (HPV18 E6/E7)", "value": "complete rejection of tumor"}, {"measurement": "CAB accumulation in a host's spleen", "setting": "CABs", "value": "promotes CAB accumulation"}]}]}
